Experimental data: PubChem BioAssay AID1439 (NMMLSC, 2008)
In all, about 220,000 compounds went through this assay and about 770 (0.35%) were called active. This list was built around the results that the source calls inconclusive (neither active nor inactive); the mix of calls is not that of the screen. No stated cut-off is given here; in the data, active means binding response below about 49% or above about 150%; inconclusive means no clear call, values can overlap the other calls; inactive means in between.

Amino acid sequences for entries named in this document (tags omitted).
UniProt P09471, whole entry, looked up: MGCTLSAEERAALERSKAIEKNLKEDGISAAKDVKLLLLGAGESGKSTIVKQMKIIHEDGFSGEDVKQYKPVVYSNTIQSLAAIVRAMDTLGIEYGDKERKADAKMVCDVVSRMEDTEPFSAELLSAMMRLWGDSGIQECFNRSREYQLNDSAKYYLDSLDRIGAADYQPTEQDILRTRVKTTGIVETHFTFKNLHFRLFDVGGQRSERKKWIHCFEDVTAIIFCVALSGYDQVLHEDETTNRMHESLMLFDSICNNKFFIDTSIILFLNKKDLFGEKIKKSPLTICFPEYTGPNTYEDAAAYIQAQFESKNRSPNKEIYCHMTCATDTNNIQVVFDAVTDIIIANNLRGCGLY

Each compound was assayed against Guanine nucleotide-binding protein G(o) subunit alpha (Homo sapiens) (UniProt P09471) (assay: RGS7-Galphao binding modulators, primary screen, biochemical, multiplexed bead flow cytometry (AID 1439;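 further: fluorescent Galphao held in activated GDP-AlF4 state binding bead-coupled RGS7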)). Conditions: at 10 µM, actives lie on both sides.

Compound | binding response (% of control)
CSc1nsc(/C=C/Nc2ccc(O)cc2C)c1C#N | inactive: 103%
CC(=O)c1c(C)[nH]c(C2=NNC(=NCc3ccccc3)SC2)c1C | inactive: 101%
CCn1cc(CN2CCN(Cc3ccc(C)o3)C(CCO)C2)c2ccccc21 (configuration not stated) | inactive: 111%
CCC(=O)Oc1ccc2c(c1)O/C(=C\c1ccco1)C2=O | inconclusive: 103%
COc1cc2c(C(=O)N3CCN(c4cccc(Cl)c4)CC3)cn(CC(C)C)c(=O)c2cc1OC | inactive: 99.7%
O=S(=O)(Nc1cccc2ccccc12)c1ccccc1 | inconclusive: 104%
Cn1cc(Br)c(NC(=O)/C=C/C(=O)O)n1 | inconclusive: 115%
Cc1ccc(NC(=O)c2nc[nH]c2C(=O)N2CCN(c3ccccc3)CC2)cc1 | inconclusive: 106%
CN(c1ccc(OCC(=O)N2CCOCC2)cc1)S(=O)(=O)c1ccc(Cl)cc1 | inactive: 101%
Cc1nc(N2CCOCC2)nc2c1CCC2 | inconclusive: 108%
Cc1cc(=O)oc2cc(OCC(=O)OCC(=O)NC3CC3)ccc12 | inconclusive: 111%
CCCCn1cnc2c(c(-c3ccccc3)c(-c3ccccc3)n2Cc2ccco2)c1=N | inconclusive: 107%
COc1cc(Br)c(C2C(C#N)=C(N)Oc3n[nH]c(-c4cccnc4)c32)cc1OC (configuration not stated) | inactive: 101%
NC(=O)c1cccc(C(N)=O)n1 | inconclusive: 105%
NC(=O)CC(NC(=O)Cc1ccc(Br)cc1)c1ccc(N2CCC(Br)CC2)c([N+](=O)[O-])c1 (configuration not stated) | inconclusive: 119%
O=c1nc(SCc2ccc(Cl)cc2)nc(-c2ccccc2)[nH]1 | inconclusive: 82.9%
CN(C)c1ccc(P(=O)(CC(=O)N/N=C/c2ccc(C#N)cc2)OCCCl)cc1 (configuration not stated) | inconclusive: 110%
CCOC(=O)C1(CCCc2ccccc2)CCN(C(=O)COC)CC1 | inconclusive: 88.5%
O=C1N=C(N2CCOCC2)S/C1=C/c1cc2c(cc1[N+](=O)[O-])OCO2 | inconclusive: 76.1%
O=C(N/N=C/c1cccc(OC(=O)c2ccco2)c1)c1ccc(F)cc1 | inactive: 100%
CSc1nsc(SC)c1C(=O)Nc1ccc(Cl)cc1 | inconclusive: 137%
COc1ccc(Nc2nc(N)nc(CCl)n2)cc1 | inconclusive: 30.9%
O=C(NC1CC1)C1=C[C@@H](C2CC2)C[C@@H](OCc2ccc(CO)cc2)O1 | inconclusive: 120%

Compound | binding response (% of control)
O=[N+]([O-])c1ccc(NCCNCCOc2nonc2-c2ccccc2)c([N+](=O)[O-])c1 | inactive: 104%
C/C(=N\Nc1ccc([N+](=O)[O-])cc1)c1ccc(N2CCOCC2)cc1 | inconclusive: 114%
CCCCCOc1ccc(N2C(=O)C(C)CNC2=S)cc1 (configuration not stated) | inconclusive: 122%
COc1ccc(NS(=O)(=O)c2cc(NC(=O)c3ccc(C)s3)ccc2N2CCOCC2)cc1 | inconclusive: 135%
CCNc1nc(NCC)nc(N(CC)C(N)=S)n1 | inconclusive: 107%
COc1ccc(S(=O)(=O)Cc2ccc(C(=O)NCCc3ccc(S(N)(=O)=O)cc3)o2)cc1 | inactive: 110%
Cc1cc(C)cc(OCC(=O)NCc2cc(C)nc3ccccc23)c1 | inconclusive: 106%
CCOC(=O)C1CCN(c2ccc(Cl)nn2)CC1 | inconclusive: 90.5%
Cc1ccc(C(=O)Nc2nc3n(n2)C(c2ccccc2)CC(=O)N3)cc1 (configuration not stated) | inconclusive: 106%
Cn1c(SCC(=O)c2ccccc2)nnc1-c1cccs1 | inconclusive: 112%
CC(=O)Nc1ccccc1C(=O)C(=O)NCCc1ccccc1 | inactive: 102%
COc1ccccc1OCCOCCOc1ccc(C)cc1Br | inactive: 88.8%
COc1ccc(C2(CNC(=O)c3cccc([N+](=O)[O-])c3)CCOCC2)cc1 | inactive: 100%
CC#CCN1c2ccccc2[C@]23C[C@@H](C(=O)OC)N(C(=O)c4ccco4)C2=NC(C(=O)OC)=C(C(=O)OC)[C@H]13 | inconclusive: 98.7%
O=C(O)c1cccc(NC(=S)NC(NC(=O)c2ccccc2[N+](=O)[O-])C(Cl)(Cl)Cl)c1 (configuration not stated) | inconclusive: 107%
Nn1c(SCc2ccccc2F)nnc1-c1ccccn1 | inconclusive: -740%
Cc1cc(NS(=O)(=O)c2ccc(NC(=S)Nc3ccc(Cl)cc3C)cc2)no1 | inconclusive: 134%
CC(=O)c1cc(F)c(N2CCN(C(=O)COc3ccc(F)cc3)CC2)cc1C | inactive: 104%
O=C(CN1CCN(S(=O)(=O)c2ccc(Br)cc2)CC1)N/N=C/c1ccncc1 | inconclusive: -131%
CCCCOC(=O)c1cccnc1 | inconclusive: 98.1%
Cc1cc(C)nc(N2CCN(C(=O)CCC(=O)Nc3nnc(C(C)C)s3)CC2)n1 | inconclusive: 111%
COc1ccc(S(=O)(=O)NC2CC(C)(C)NC(C)(C)C2)cc1C(C)C | inconclusive: 126%
O/N=C/c1ccc2ccccc2n1 | inconclusive: 95.3%

In the list so far, these contain a carbonyl joined to an NH by a bond outside any ring:
Compound | binding response (% of control)
Cn1cc(Br)c(NC(=O)/C=C/C(=O)O)n1 | inconclusive: 115%
Cc1ccc(NC(=O)c2nc[nH]c2C(=O)N2CCN(c3ccccc3)CC2)cc1 | inconclusive: 106%
Cc1cc(=O)oc2cc(OCC(=O)OCC(=O)NC3CC3)ccc12 | inconclusive: 111%
NC(=O)c1cccc(C(N)=O)n1 | inconclusive: 105%
NC(=O)CC(NC(=O)Cc1ccc(Br)cc1)c1ccc(N2CCC(Br)CC2)c([N+](=O)[O-])c1 (configuration not stated) | inconclusive: 119%
CN(C)c1ccc(P(=O)(CC(=O)N/N=C/c2ccc(C#N)cc2)OCCCl)cc1 (configuration not stated) | inconclusive: 110%
O=C(N/N=C/c1cccc(OC(=O)c2ccco2)c1)c1ccc(F)cc1 | inactive: 100%
CSc1nsc(SC)c1C(=O)Nc1ccc(Cl)cc1 | inconclusive: 137%
O=C(NC1CC1)C1=C[C@@H](C2CC2)C[C@@H](OCc2ccc(CO)cc2)O1 | inconclusive: 120%
COc1ccc(NS(=O)(=O)c2cc(NC(=O)c3ccc(C)s3)ccc2N2CCOCC2)cc1 | inconclusive: 135%
COc1ccc(S(=O)(=O)Cc2ccc(C(=O)NCCc3ccc(S(N)(=O)=O)cc3)o2)cc1 | inactive: 110%
Cc1cc(C)cc(OCC(=O)NCc2cc(C)nc3ccccc23)c1 | inconclusive: 106%
Cc1ccc(C(=O)Nc2nc3n(n2)C(c2ccccc2)CC(=O)N3)cc1 (configuration not stated) | inconclusive: 106%
CC(=O)Nc1ccccc1C(=O)C(=O)NCCc1ccccc1 | inactive: 102%
COc1ccc(C2(CNC(=O)c3cccc([N+](=O)[O-])c3)CCOCC2)cc1 | inactive: 100%
O=C(O)c1cccc(NC(=S)NC(NC(=O)c2ccccc2[N+](=O)[O-])C(Cl)(Cl)Cl)c1 (configuration not stated) | inconclusive: 107%
O=C(CN1CCN(S(=O)(=O)c2ccc(Br)cc2)CC1)N/N=C/c1ccncc1 | inconclusive: -131%
Cc1cc(C)nc(N2CCN(C(=O)CCC(=O)Nc3nnc(C(C)C)s3)CC2)n1 | inconclusive: 111%

(next part)

Compound | binding response (% of control)
Cc1c(-c2ccncc2)oc2ccc(Br)cc2c1=O | inconclusive: 88.2%
O=C(O)Cc1csc(NC(=O)CSc2cccc(C(=O)O)n2)n1 | inconclusive: 118%
CCCC12CN3CC(C)(CN(C1)C3c1cccs1)C2=O (configuration not stated) | inconclusive: 88%
CCCCCNCc1ccc(Br)cc1 | inactive: 106%
CCCCOC(=O)Cn1c(=O)n(CC(=O)OCCCC)c2cc(C)ccc21 | inactive: 103%
c1ccc(CCNc2ncnc3sccc23)nc1 | inconclusive: 107%
O=C(CSc1nnc2scc(-c3ccccc3)n12)N1CCN(Cc2ccccc2)CC1 | inactive: 96.3%
CC(NCCC(Cc1ccccc1)c1ccco1)c1ccccc1 (configuration not stated) | inconclusive: 101%
O=C(c1ccccc1)C(Nc1ccccn1)c1ccccc1 (configuration not stated) | inconclusive: 101%
C=CCNC(=O)CCC(=O)NNc1nc2ccccc2c2nc(-c3ccccc3)nn12 | inconclusive: 116%
CN(C)c1ccc(C(=O)Nc2nnc(C3=COCCO3)o2)cc1 | inconclusive: 117%
COc1ccc(-c2c[n+]3c(n2-c2ccccc2)SCC3)cc1 | inconclusive: 105%
CCCc1ccc(C(=O)NNc2ccc(F)cc2)cc1 | inconclusive: 98.7%
CC(C)NC(=O)N(Cc1ccc(Cl)cc1)Cc1cccs1 | inconclusive: 69.2%
O=C(Nc1ccccc1)Nc1ccccc1C(=O)NCC1CC1 | inconclusive: 107%
Cc1ccc(NC(=O)CSc2ncnc3ccccc23)cc1S(=O)(=O)N1CCOCC1 | inconclusive: 162%
O=C(Nc1nnc(-c2ccc3c(c2)OCCO3)o1)C1CCCCC1 | inconclusive: 99.1%
COc1ccc(NC(=O)CSCc2ccc(C)cc2)cc1 | inconclusive: 115%
Oc1c(/C=C/C=C/C=Nc2ccccc2)sc(=S)n1Cc1ccccc1 | inconclusive: 154%
CCNc1c(NCC)c(=O)c1=O | inconclusive: 98.4%
COc1ccc(-c2nc3ccccc3c(=O)n2-c2c(C)n(C)n(-c3ccccc3)c2=O)cc1 | inconclusive: 154%
CCc1ccc[n+](-c2[nH]c(=O)sc2/C=N/N=C(\N)[O-])c1 | inconclusive: 108%
Cc1nc2c(ncn2-c2ccccc2)c(=O)n1NC(=O)CN1CCCCC1 | inconclusive: 187%

Compound | binding response (% of control)
O=c1c2oc3ccccc3c2ncn1Cc1ccc(Cl)cc1 | inactive: 106%
COc1ccc(NC(=O)Nc2nnc(CC(=O)Nc3ccccc3)s2)cc1 | inconclusive: 103%
C=CCNC(=S)NNC(=O)Cn1c(-c2ccccc2)cc(=O)n2ncnc12 | inconclusive: 104%
S=C1NCN(CCc2ccccc2)CN1 | inconclusive: 98.5%
CC(C)(C)NC(=O)c1ccccc1-c1nc2ccccc2s1 | inconclusive: 100%
CCC1Oc2ccccc2N(CC(=O)NCc2ccco2)C1=O (configuration not stated) | inactive: 94.1%
O=C(Nc1ccc(C2=NCCN2)cc1)c1ccc(C(=O)Nc2ccc(C3=NCCN3)cc2)c(Cl)c1 | inconclusive: -145%
O=C(c1cccs1)N1CCN(S(=O)(=O)c2ccc(F)cc2)CC1 | inactive: 104%
Cc1ccc(C)c(C(C)NC(=O)c2ccc(Br)o2)c1 (configuration not stated) | inconclusive: 147%
NC(=O)[C@@H]1CC2(CC(c3cccc(NC(=O)[C@H]4CCC(=O)N4)c3)=NO2)CN1C(=O)COc1ccc(Cl)cc1 (some centres not stated) | inconclusive: 104%
COC(=O)C(=N/Nc1ccccc1C(=O)OC)/C(C)=N/O | inconclusive: 104%
CCc1cccc(CC)c1NC(=O)/C(C#N)=C/c1ccccc1C(F)(F)F | inactive: 97.7%
O=C(O)c1ccc(Sc2nnc(-c3cccc(Br)c3)o2)c([N+](=O)[O-])c1 | inactive: 101%
O=C(CCc1ccccc1)Nc1ccc(NC(=O)C2CCCCC2)nc1 | inactive: 105%
COC(=O)c1ccc(/C=N/NC(=O)CC(=O)NCc2cccnc2)cc1 | inconclusive: 110%
Cc1nc2ccc(NC(=O)c3ccc([N+](=O)[O-])cc3[N+](=O)[O-])cc2s1 | inconclusive: 76.4%
O=C(C1=NN[C@@H]2C(=O)N(Cc3ccccc3)C(=O)[C@H]12)c1ccc(F)cc1 | inconclusive: 79.5%
COc1ccc(C2=NOC(C(=O)Nc3cccnc3)C2)cc1OC (configuration not stated) | inconclusive: 92%
Clc1cccc(Cl)c1C1=NOC(c2nnc(-c3ccccc3)o2)C1 (configuration not stated) | inconclusive: 91.7%
CC(C)CNC(=S)NC(=O)c1csc([N+](=O)[O-])c1 | inconclusive: 197%
COC(=O)c1sc(SC)c2c1CC(C)(C)C/C2=N/O | inconclusive: 81.2%
COc1cc2c(cc1NC(=O)CSc1nc3ccc(C)cc3[nH]1)oc1ccccc12 | inactive: 101%
CCOCCc1nnc(NC(=O)C(C)Oc2ccccc2)s1 (configuration not stated) | inconclusive: 125%
